Some peptides are written in HELM: one residue between dots, names in brackets for other building blocks, links after the first $. Numbered stars: 1 amine (or outer) side, 2 acyl side, 3 side chain; on linkers, the order of the positions; unused ones are H or OH. Bridge positions count the residues as written; N and C are the ends. Square brackets hold non-standard residues; d marks the D form. CH2 = C([*:1])[*:2]
Test: general procedure: Fmoc solid-phase peptide synthesis; Rink Amide resin LL MBHA (NovaBioChem, 0.33 mmol/g); Knorr Amide MBHA Resin for tracer; DIC/Oxyma Pure; HATU with NMM for tracer
Details: cyclisation step, UPLC, 220 nm

Row | Substance | final HPLC purity [%]
1 | 5-FAM-labeled analog of Pro13Lys MP-1687 | 95.3

Same assay, conditions: whole synthesis, UPLC, UV 220 nm (stated for tracer)

Row | Substance | final purity (method not given) [%]
2 | Ac-K(N3)-RR-cyclo(c(methylene)PLYISYDPV-hC)-RR-NH2 | 81.4
3 | Ac-K(N3)-RRRR-cyclo(C(methylene)PLYISYDPVC)-RRRR-NH2 | 90.2
4 | Ac-K(N3)-RRRR-cyclo(c(methylene)PLYISYDPVC)-RRRR-NH2 | 95.3
5 | Ac-K(N3)-RRRR-cyclo(dPLYISYDPV-Dap)-RRRR-NH2 | 93.0
6 | Ac-K(N3)-rrrr-cyclo(c(methylene)PLYISYDPVC)-rrrr-NH2 | 95.1
7 | Ac-RR-cyclo(c(methylene)ALYISYDPVC)-RR-NH2 | 95.7
8 | Ac-RR-cyclo(c(methylene)PLAISYDPVC)-RR-NH2 | 95.0
9 | Ac-RR-cyclo(c(methylene)PLYASYDPVC)-RR-NH2 | 94.2
10 | Ac-RR-cyclo(c(methylene)PLYIAYDPVC)-RR-NH2 | 96.0
11 | Ac-RR-cyclo(c(methylene)PLYISADPVC)-RR-NH2 | 95.9
12 | Ac-RR-cyclo(c(methylene)PLYISYAPVC)-RR-NH2 | 96.5
13 | Ac-RR-cyclo(c(methylene)PLYISYDAVC)-RR-NH2 | 94.8
14 | Ac-RR-cyclo(c(methylene)PLYISYDPAC)-RR-NH2 | 96.9
15 | Ac-RR[dC]PAYISYDPVCRR-NH2 (linker 3-13 via CH2) | 90.3
16 | Ac-rrrr-cyclo(c(methylene)plyisydpvc)-rrrr-NH2 | 95.3
17 | PEPTIDE1{[ac].[XKaz].R.R.R.R.[XAspL].P.L.Y.I.S.Y.D.P.V.[XDap].R.R.R.R.[am]}$PEPTIDE1,PEPTIDE1,7:R3-17:R3$$$V2.0 | 92.3
18 | PEPTIDE1{[ac].[XKaz].R.R.[XCysMD].P.L.Y.I.S.Y.D.P.V.C.R.R.[am]}$PEPTIDE1,PEPTIDE1,5:R3-15:R3$$$V2.0 | 96.9
19 | PEPTIDE1{[ac].[XKaz].[dR].[dR].[dR].[dR].[XCysMD].P.L.Y.I.[XaMeS].Y.D.P.V.C.[dR].[dR].[dR].[dR].[am]}$PEPTIDE1,PEPTIDE1,7:R3-17:R3$$$V2.0 | 98.0

— article PMC8672774 (Chemical Science, 2021)
